Measurements published in US20110172095A1, “Triazole Compounds, Use Thereof and Agents Containing Same” (BASF SE, priority 2008, published 2011).
Some results were stated once for a whole list of compounds, not compound by compound.

What was measured:
[1] = tested on: Erysiphe [syn. Blumeria] graminis forma specialis. tritici; assay: Greenhouse: activity against mildew of wheat, protective spray (Example G1); format: in vivo; settings: wheat seedlings, 250 ppm active compound, sprayed 24 h before inoculation, assessed after 7 days; untreated plants 90% infected
Puccinia recondite = assay: Greenhouse: curative activity against brown rust of wheat (Example G3); format: in vivo; settings: wheat seedlings, 250 ppm active compound, curative (sprayed the day after inoculation), assessed after 7 days; untreated plants 90% infected
Septoria tritici = assay: Microtiter test against the Septoria leaf blotch pathogen (Example M1); format: cell-based; settings: 31 ppm active compound, absorption at 405 nm on day 7, active compound-free control = 100%
Leptosphaeria nodorum = assay: Microtiter test against the glume blotch pathogen (Example M2); format: cell-based; settings: 31 ppm active compound, absorption at 405 nm on day 7, relative to active compound-free control

Structure (SMILES)	infection (mildew development in % infection of the entire leaf area) [1]	infection (extent of rust fungus development on the leaves) (Puccinia recondite)	relative growth in % of the pathogen (Septoria tritici)	relative growth in % of the pathogen (Leptosphaeria nodorum)
CC(C)(C)C(O)C(CCOc1ccc(Br)cc1)n1cncn1 (centres unmarked) [I.1]	at most 15%	–	–	–
CC(C)(C)C(O)C(CCOc1ccc2ccccc2c1)n1cncn1 (centres unmarked) [I.12]	–	at most 15%	–	–
COC(C(CCOc1cccc(Cl)c1)n1cncn1)C(C)(C)C (centres unmarked) [I.15]	at most 15%	at most 15%	–	–
CC(C)(C)C(O)C(CCOCc1ccc(F)cc1)n1cncn1 (centres unmarked) [I.17, 6-(4-fluorobenzyloxy)-2,2-dimethyl-4-[1,2,4]triazol-1-ylhexan-3-ol]	–	–	at most 12%	at most 3%
CC(C)(C)C(O)C(CCOCCc1ccccc1F)n1cncn1 (centres unmarked) [I.19, 6-[2-(2-fluorophenyl)ethoxy]-2,2-dimethyl-4-[1,2,4]triazol-1-ylhexan-3-ol]	–	–	at most 12%	at most 3%
